The values below come from paper PMC12222027, “In situ structure of a bacterial flagellar motor at subnanometre resolution reveals adaptations for increased torque” (Nature Microbiology, 2025).

The chains behind the UniProt entries cited, without tags or fusion partners. Where a name states a change or a piece, a line headed by the entry shows the natural chain unless it says otherwise.
UniProt Q0PA06: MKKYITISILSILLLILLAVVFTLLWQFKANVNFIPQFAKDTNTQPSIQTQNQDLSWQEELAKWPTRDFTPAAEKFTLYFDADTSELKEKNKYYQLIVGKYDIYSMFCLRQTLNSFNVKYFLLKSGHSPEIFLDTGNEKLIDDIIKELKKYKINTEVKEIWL

These are yes or no findings as the source states them, for the method shown. Binding seen in cells or lysates may run through a third protein. Binding can be weak; no strength is given. Tags and fused reporters may be left off the sequences shown.

This assay deals with T1, PflB-3×FLAG (C. jejuni NCTC11168, strain CSS-5716) (C. jejuni NCTC11168).
T1 sequence: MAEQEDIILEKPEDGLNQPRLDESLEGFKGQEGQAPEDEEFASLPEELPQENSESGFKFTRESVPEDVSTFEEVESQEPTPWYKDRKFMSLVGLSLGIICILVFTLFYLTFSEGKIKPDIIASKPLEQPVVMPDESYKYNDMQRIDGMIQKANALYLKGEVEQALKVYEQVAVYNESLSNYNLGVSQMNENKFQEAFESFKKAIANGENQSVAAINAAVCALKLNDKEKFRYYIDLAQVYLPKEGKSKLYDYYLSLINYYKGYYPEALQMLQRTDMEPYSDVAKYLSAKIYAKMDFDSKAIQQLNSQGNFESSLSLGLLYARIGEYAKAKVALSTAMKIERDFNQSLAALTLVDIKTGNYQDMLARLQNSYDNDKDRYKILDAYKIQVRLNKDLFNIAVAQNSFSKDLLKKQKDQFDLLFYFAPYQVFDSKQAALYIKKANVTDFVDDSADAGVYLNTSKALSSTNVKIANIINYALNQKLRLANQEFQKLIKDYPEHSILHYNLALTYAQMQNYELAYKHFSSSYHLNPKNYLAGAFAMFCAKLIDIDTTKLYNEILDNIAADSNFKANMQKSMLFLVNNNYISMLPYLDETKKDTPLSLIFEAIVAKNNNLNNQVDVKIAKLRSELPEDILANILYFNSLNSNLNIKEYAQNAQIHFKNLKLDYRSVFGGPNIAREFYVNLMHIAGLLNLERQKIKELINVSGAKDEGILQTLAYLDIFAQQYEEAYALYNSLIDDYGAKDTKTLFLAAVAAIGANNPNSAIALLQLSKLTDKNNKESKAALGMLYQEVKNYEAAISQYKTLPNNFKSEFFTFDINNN
Nature of the assay: co-IP; chromosomally tagged C. jejuni NCTC11168 strains; cleared lysates with anti-FLAG antibody and Protein A-Sepharose, 4 °C, buffer A (20 mM Tris-HCl pH 8, 1 mM MgCl2, 150 mM KCl, 1 mM dithiothreitol); western blot with FlgP antisera or anti-GFP. (Immunoblotting shows a protein as a band on a membrane.)

Turning to “PflD-sfGFP (Cj0892c, C. jejuni NCTC11168) (from UniProt Q0PA06)”, the binding result is reported as “binds”.
